Test results published in article PMC10746205.
No constants are given. Whether binding was seen depends on the method and setting. In cells and extracts the contact can be indirect. Some binding calls cover weakened binding; strength is not graded here.

By UniProt entry, the sequences of proteins in these tests, tags left out.
UniProt Q9MZ16: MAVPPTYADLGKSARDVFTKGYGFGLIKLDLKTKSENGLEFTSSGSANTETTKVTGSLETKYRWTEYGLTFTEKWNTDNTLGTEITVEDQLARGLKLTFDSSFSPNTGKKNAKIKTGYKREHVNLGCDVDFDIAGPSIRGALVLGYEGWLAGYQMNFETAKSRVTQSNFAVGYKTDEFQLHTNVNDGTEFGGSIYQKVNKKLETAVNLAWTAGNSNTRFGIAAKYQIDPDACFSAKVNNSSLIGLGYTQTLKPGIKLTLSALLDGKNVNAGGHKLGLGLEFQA

Target: voltage-dependent anion channel 1, endogenous in porcine lung (pig (endogenous in porcine lung)) (UniProt Q9MZ16)
Test: cross-linking; VDAC1 oligomerization assay: lung tissue of mock-infected or PRRSV-infected pigs; pellets in CHAPS buffer with 2 mM DSS, 37°C, 20 min; SDS-PAGE and immunoblotting

binding: binds
Substance: voltage-dependent anion channel 1, endogenous in porcine lung (from UniProt Q9MZ16 1-283)
